Results on 3 molecules are retold here after paper PMC12103576.

The chains behind the UniProt entries cited, without tags or fusion partners. Residues count along the entry.
UniProt Q13467, residues 27-585: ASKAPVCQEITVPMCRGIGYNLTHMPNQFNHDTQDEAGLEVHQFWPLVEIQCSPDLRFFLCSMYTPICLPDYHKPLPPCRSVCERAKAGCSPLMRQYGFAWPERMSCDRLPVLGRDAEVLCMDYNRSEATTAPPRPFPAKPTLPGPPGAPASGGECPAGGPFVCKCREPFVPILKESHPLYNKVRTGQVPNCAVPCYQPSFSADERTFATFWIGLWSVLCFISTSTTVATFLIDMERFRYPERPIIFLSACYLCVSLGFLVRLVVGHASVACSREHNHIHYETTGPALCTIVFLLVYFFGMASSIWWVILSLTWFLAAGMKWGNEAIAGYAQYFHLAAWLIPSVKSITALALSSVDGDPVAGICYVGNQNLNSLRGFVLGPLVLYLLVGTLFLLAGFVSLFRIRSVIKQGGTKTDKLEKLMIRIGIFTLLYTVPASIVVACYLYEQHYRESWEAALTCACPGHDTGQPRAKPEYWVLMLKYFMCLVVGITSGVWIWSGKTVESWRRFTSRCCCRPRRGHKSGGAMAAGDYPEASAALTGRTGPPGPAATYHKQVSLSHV
UniProt O75581, residues 20-1613: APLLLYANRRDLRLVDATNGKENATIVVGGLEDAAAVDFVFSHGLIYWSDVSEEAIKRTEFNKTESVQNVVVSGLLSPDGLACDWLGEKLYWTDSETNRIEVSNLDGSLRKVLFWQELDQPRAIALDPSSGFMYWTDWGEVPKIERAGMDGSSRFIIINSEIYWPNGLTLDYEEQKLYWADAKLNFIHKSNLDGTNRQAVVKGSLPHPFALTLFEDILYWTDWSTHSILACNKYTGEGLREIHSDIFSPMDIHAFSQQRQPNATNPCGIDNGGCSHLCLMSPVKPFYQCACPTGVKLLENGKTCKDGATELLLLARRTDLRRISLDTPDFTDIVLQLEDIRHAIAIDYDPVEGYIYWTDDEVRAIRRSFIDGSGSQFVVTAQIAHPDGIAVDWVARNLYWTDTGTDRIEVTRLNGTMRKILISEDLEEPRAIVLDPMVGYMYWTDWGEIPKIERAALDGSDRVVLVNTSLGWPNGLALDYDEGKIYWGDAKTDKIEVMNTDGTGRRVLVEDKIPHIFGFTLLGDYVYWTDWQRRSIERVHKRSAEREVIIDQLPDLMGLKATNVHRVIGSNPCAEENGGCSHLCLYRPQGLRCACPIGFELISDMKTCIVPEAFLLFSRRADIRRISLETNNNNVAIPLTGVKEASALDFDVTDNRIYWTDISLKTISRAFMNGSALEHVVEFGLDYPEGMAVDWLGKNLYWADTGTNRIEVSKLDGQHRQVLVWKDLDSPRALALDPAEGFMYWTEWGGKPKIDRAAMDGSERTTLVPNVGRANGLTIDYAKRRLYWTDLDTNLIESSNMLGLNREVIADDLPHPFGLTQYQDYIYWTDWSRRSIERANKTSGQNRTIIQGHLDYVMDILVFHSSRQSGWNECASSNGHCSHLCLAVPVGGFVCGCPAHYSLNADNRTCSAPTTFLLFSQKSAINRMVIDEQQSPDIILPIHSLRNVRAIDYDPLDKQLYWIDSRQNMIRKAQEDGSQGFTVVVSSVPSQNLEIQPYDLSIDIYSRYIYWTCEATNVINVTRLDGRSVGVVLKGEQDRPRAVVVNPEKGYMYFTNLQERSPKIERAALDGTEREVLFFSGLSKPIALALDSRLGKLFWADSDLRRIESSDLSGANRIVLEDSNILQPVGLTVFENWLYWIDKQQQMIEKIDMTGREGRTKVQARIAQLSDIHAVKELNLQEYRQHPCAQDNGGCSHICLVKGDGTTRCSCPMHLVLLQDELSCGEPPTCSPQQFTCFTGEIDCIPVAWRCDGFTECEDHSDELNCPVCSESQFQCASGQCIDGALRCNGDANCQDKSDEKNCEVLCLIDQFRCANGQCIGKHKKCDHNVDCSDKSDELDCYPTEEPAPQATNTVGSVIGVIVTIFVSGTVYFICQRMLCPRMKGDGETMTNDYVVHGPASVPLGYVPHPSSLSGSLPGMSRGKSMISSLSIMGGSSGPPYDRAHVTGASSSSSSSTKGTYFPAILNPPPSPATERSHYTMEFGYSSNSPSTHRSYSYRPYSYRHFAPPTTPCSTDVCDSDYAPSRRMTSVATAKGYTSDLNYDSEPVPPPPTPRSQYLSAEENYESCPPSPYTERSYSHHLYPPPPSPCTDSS
UniProt P56704, residues 19-352: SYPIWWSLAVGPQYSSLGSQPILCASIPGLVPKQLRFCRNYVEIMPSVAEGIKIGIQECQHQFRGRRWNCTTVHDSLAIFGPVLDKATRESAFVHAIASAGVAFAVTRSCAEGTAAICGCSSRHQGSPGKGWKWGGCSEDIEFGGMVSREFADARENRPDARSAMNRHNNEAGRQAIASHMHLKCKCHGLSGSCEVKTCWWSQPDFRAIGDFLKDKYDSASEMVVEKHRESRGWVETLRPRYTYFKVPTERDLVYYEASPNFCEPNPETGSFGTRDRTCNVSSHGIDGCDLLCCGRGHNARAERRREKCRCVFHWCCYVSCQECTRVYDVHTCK

No constants are given. Whether binding was seen depends on the method and setting. For part of these data: Binding seen in cells or lysates may run through a third protein. Some binding calls cover weakened binding; strength is not graded here.

One test concerns the target SNAP-FZD5 (human) (UniProt Q13467). The experiment in a line: single-molecule tracking (TIRF, spatial confinement analysis); 100 nM recombinant WNT added to live CHO-K1 cells with SNAP-FZD5 and Halo-LRP6; confinement of each receptor read out, 37 °C; only the binder purified.
The next test concerns the target FLAG-LRP6-Venus (human) (UniProt O75581). The experiment in a line: FRET or BRET; kinetic NanoBRET (ΔBRET) in live HEK293 or ΔDVL1-3 cells, Nluc donor and Venus acceptor co-transfected with MESD, stimulated with 1000 ng/ml WNT-3A, 37 °C, HBSS + 0.1% BSA.

“human WNT-3A (from UniProt P56704 19-352) (ligand)”: the binding result in the test with SNAP-FZD5 (human) is “binds”.
Regarding “β2-adrenoceptor-Nluc (from UniProt P07550 1-413) (receptor)”, the binding entry with FLAG-LRP6-Venus (human) is listed as “no binding”.

B1: human WNT-16B (ligand, UniProt Q9UBV4-1 30-365)
chain: NWMWLGIASFGVPEKLGCANLPLNSRQKELCKRKPYLLPSIREGARLGIQECGSQFRHERWNCMITAAATTAPMGASPLFGYELSSGTKETAFIYAVMAAGLVHSVTRSCSAGNMTECSCDTTLQNGGSASEGWHWGGCSDDVQYGMWFSRKFLDFPIGNTTGKENKVLLAMNLHNNEAGRQAVAKLMSVDCRCHGVSGSCAVKTCWKTMSSFEKIGHLLKDKYENSIQISDKTKRKMRRREKDQRKIPIHKDDLLYVNKSPNYCVEDKKLGIPGTQGRECNRTSEGADGCNLLCCGRGYNTHVVRHVERCECKFIWCCYVRCRRCESMTDVHTCK
For B1, the binding result with SNAP-FZD5 (human) is “binds”.
